# Data taken from PubChem BioAssay AID2551 (National Center for Advancing Translational Sciences (NCATS), 2010).
# Amino acid sequences for entries named in this document (tags omitted). A change or cut given only in a name is not applied to a line headed by its entry.
# UniProt P51450: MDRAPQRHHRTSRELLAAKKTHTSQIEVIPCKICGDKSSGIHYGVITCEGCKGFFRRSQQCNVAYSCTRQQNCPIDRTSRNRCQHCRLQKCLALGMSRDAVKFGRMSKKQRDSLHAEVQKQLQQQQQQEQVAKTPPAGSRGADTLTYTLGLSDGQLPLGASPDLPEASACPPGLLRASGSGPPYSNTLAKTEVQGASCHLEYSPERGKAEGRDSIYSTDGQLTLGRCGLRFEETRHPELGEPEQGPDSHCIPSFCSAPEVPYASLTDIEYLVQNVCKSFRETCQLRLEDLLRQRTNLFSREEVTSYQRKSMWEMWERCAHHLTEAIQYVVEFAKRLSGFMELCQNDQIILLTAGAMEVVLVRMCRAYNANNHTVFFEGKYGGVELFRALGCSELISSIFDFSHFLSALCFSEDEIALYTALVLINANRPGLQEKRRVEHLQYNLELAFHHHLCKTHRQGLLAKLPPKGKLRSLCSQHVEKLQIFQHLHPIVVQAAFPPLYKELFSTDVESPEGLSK
# The campaign covered roughly 310,000 compounds. About 17,000 (5.5%) were called active. The shares of active, inactive and inconclusive entries below differ from those in the screen. Calls follow the shape of the dose curve; as a rule, active = well fitted inhibition curve with a large enough effect; inconclusive = small, poorly fitted or top-dose-only effect, or effect the other way; inactive = no such curve, though single readings can be large or run the other way. Potencies beside an inconclusive call are fits to weak or partial responses and may not hold up.
# Target: Nuclear receptor ROR-gamma (Mus musculus) (UniProt P51450)
# Experiment: qHTS for inhibitors of ROR gamma transcriptional activity; also: nearly all actives have a fitted effect of over 60% in size
# Conditions: Drosophila S2 Gal4-RORgamma UAS-luciferase reporter, 20 h; activity change, negative = inhibition: at 53.6 µM (top of the series)
# Method in brief: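 Compounds are pin-transferred onto Drosophila Schneider cells expressing a copper-inducible Gal4–ROR gamma transactivation domain fusion. After 1 hr, copper sulfate is added to 700 uM final; luciferase is read 20 hr later.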
# % is scaled to controls: 0 for no effect and ±100 for the full control effect; potency is read from the fitted curve at half-maximal effect.
SMILES,Potency,"activity change, negative = inhibition"
Cc1cc(C(=O)Nc2sc3c(c2C#N)CCC(C)C3)no1 (stereo not given),"inconclusive: 20 µM [inhibitor, single point]",–
CC(=O)Nc1c(Cl)cc([N+](=O)[O-])c2ccccc12,–,inactive: 22.6%
COc1ccc(CNC(=O)c2c(C)nc3ccccn23)cc1,"inconclusive: 22.4 µM [activator, single point]",–
CCCC(=O)NC(=S)Nc1ccc(S(=O)(=O)Nc2ccc(OCC)cc2)cc1,"inconclusive: 1.26 µM [inhibitor, full curve, poor fit]",–
CCOc1ccc(N2C(=O)CC(Sc3ccccc3C(=O)O)C2=O)c([N+](=O)[O-])c1 (stereo not given),"inconclusive: 35.5 µM [inhibitor, single point]",–
O=C(Cn1c(=O)oc2ccccc21)Nc1nc(-c2ccccc2)cs1,"inconclusive: 35.5 µM [inhibitor, single point]",–
COc1ccc(NC(=S)NCCC(c2ccccc2)c2ccccc2)c(OC)c1,active: 3.98 µM,–
O=C(Nc1ccc2c(c1)OCO2)Nc1ccc(Br)cn1,"inconclusive: 14.1 µM [activator, single point]",–
CCOC(=O)CN1C(=O)S/C(=C/c2ccco2)C1=O,"inconclusive: 10 µM [activator, single point]",–
COc1cccc(Cn2c(=O)c(-c3ccc(F)c(F)c3)nc3cncnc32)c1,–,inactive: 0.916%
Cc1ccc(S(=O)(=O)N2CCN(C(=O)c3sccc3-c3ccccc3)CC2)cc1,–,inactive: 10.2%
Cc1ccc(C(NC(=O)c2ccccc2)C(Cl)(Cl)Cl)cc1 (stereo not given),"inconclusive: 35.5 µM [activator, single point]",–
COc1cc2c(C(=O)N3CCN(C)CC3)c(CSc3ccccc3)n(C)c2cc1Br,"inconclusive: 25.1 µM [inhibitor, single point]",–
CCCCN(C)CCn1c(=S)[nH]c2ccc(N3CCOCC3)cc2c1=O,"inconclusive: 35.5 µM [inhibitor, single point]",–
Cn1c(=O)c2nc(Cl)c(-c3ccccc3)nc2n(C)c1=O,–,inactive: -13.2%
NC(=O)c1oc2ccccc2c1NC(=O)CN1CCCCC1,"inconclusive: 35.5 µM [inhibitor, single point]",–
CCc1nnc(NC(=O)c2nc(Cl)ccc2Cl)s1,"inconclusive: 10 µM [inhibitor, partial curve]",–
CC(=O)O[C@@H]1[C@H]2[C@@H](C[C@@H](C)[C@@H]3CCC(=O)[C@@]13C)OC(=O)[C@@H]2C,–,inactive: -9.57%
COc1ccc(N2CCN(C(=O)c3cc(C)on3)CC2)cc1,–,inactive: -0.397%
Cn1c(O)c(N=NC(=S)Nc2ccccc2F)c2cc(S(=O)(=O)N3CCOCC3)ccc21,active: 0.316 µM,–

# Quoted at random: two entries already listed, in no set order.
SMILES,Potency,"activity change, negative = inhibition"
Cc1ccc(S(=O)(=O)N2CCN(C(=O)c3sccc3-c3ccccc3)CC2)cc1,–,inactive: 10.2%
NC(=O)c1oc2ccccc2c1NC(=O)CN1CCCCC1,"inconclusive: 35.5 µM [inhibitor, single point]",–
